Assay results: the supplement of paper PMC10849652
The list shows a part of the results.

Protein sequences, listed by entry. Tags and fused reporters are not part of them. Lines headed by an entry give the natural chain unless they say otherwise; changes in a name come on top.
UniProt Q9HAP2: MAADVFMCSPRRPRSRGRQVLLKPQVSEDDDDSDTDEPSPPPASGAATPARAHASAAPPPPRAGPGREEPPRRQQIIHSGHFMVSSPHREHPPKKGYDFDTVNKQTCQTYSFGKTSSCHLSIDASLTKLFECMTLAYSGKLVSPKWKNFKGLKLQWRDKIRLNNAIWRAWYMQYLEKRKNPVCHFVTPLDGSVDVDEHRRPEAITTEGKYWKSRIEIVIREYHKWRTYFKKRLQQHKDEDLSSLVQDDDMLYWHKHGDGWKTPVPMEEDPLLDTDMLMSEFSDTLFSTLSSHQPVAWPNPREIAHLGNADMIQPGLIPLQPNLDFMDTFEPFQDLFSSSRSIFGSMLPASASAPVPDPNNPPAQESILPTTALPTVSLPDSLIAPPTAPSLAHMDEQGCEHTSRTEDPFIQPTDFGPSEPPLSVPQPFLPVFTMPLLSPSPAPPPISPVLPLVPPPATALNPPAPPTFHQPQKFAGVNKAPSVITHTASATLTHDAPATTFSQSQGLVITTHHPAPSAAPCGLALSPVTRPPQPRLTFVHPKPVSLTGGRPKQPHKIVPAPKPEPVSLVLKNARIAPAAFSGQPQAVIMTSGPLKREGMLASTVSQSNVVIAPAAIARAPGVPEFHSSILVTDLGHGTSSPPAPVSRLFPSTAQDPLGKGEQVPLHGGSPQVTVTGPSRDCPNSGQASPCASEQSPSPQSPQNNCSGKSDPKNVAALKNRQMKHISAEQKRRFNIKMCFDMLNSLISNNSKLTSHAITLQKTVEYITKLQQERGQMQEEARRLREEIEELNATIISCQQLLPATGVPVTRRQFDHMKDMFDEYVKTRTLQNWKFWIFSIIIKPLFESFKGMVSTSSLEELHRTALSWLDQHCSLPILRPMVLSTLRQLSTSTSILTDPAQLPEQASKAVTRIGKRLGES
UniProt Q8N4V1: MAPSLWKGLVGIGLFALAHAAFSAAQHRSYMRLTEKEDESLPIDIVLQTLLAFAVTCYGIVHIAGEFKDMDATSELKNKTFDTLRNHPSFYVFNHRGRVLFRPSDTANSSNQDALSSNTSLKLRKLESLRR
UniProt Q9Y5U8: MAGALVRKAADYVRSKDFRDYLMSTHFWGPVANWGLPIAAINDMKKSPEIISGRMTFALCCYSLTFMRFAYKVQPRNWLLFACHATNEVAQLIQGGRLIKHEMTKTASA
UniProt P25325: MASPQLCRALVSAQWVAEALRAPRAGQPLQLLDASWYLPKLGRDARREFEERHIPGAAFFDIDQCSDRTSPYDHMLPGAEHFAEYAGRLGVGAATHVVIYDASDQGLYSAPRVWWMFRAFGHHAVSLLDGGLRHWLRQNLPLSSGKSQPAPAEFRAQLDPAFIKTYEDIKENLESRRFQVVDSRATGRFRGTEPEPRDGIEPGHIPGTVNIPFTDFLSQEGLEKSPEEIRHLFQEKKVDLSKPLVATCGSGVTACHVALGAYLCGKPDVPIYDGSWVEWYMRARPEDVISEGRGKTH
UniProt P14174: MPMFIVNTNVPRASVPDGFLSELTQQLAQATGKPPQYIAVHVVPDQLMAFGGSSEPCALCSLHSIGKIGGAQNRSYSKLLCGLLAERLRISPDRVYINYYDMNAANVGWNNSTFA
UniProt Q96T76: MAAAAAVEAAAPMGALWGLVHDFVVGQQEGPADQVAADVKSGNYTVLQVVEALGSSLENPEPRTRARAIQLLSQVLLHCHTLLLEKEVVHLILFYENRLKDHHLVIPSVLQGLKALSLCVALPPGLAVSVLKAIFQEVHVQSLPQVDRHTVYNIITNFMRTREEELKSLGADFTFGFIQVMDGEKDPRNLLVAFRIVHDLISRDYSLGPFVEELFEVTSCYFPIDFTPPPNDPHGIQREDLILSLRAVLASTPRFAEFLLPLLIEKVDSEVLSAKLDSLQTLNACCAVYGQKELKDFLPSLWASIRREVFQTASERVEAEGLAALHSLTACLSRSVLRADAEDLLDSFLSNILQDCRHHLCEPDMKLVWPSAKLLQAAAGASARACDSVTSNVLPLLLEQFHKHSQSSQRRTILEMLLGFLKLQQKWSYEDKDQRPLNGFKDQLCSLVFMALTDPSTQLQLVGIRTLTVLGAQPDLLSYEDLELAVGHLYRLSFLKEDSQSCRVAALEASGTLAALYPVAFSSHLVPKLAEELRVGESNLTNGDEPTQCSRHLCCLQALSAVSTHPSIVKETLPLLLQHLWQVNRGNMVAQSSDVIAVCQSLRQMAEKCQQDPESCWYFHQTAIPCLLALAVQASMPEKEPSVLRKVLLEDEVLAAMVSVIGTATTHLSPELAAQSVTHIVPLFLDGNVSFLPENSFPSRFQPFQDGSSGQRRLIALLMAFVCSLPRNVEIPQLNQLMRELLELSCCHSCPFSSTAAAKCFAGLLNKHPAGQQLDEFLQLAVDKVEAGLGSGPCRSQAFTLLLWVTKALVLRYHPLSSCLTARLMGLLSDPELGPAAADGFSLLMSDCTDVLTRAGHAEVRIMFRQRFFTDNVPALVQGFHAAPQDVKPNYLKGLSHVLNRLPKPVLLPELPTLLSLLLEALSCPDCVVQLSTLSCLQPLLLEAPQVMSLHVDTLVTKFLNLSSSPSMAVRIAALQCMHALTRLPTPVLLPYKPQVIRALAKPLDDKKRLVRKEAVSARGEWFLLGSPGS
UniProt P51948: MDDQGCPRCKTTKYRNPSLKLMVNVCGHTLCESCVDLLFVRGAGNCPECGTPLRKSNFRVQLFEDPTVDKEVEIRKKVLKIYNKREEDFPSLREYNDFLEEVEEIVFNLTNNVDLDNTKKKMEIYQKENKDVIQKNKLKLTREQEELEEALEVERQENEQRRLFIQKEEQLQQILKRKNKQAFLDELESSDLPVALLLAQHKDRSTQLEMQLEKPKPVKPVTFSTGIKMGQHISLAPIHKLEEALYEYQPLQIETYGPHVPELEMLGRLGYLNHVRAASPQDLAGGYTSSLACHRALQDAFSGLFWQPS
UniProt Q9BRT3: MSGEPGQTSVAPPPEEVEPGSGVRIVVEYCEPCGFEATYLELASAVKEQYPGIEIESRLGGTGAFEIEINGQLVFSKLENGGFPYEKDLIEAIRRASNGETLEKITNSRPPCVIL
UniProt Q9BPX6: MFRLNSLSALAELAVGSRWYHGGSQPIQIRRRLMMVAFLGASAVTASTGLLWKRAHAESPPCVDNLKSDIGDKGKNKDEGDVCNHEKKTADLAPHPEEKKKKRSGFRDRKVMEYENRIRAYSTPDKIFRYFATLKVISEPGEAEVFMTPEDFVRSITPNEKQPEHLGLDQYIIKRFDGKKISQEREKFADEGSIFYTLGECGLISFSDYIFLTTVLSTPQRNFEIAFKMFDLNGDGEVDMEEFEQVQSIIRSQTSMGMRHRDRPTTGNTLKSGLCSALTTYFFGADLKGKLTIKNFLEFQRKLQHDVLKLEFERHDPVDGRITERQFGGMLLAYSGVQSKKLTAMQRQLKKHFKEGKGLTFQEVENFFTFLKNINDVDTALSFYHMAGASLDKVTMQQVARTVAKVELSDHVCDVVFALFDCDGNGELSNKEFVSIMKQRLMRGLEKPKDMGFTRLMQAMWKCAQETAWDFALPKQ
UniProt Q9BVC4, whole entry, looked up: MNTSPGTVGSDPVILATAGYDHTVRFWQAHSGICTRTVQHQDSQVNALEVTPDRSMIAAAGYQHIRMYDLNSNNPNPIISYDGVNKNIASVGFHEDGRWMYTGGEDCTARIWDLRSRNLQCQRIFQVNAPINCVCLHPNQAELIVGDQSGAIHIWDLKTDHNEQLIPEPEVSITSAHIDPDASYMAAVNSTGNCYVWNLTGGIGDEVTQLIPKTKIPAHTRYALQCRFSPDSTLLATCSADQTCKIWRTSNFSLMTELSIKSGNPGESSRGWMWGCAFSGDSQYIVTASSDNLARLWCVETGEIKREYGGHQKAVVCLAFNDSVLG
UniProt Q9BWT6: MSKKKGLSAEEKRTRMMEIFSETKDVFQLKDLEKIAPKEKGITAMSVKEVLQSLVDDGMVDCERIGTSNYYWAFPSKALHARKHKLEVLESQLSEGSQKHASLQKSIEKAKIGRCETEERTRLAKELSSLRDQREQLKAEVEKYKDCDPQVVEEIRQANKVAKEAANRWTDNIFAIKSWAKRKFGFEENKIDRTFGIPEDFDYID
UniProt Q5XKP0: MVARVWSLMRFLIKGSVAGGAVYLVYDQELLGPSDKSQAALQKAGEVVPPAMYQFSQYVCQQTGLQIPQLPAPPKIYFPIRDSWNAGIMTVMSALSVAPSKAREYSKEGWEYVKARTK
UniProt Q8IYU8: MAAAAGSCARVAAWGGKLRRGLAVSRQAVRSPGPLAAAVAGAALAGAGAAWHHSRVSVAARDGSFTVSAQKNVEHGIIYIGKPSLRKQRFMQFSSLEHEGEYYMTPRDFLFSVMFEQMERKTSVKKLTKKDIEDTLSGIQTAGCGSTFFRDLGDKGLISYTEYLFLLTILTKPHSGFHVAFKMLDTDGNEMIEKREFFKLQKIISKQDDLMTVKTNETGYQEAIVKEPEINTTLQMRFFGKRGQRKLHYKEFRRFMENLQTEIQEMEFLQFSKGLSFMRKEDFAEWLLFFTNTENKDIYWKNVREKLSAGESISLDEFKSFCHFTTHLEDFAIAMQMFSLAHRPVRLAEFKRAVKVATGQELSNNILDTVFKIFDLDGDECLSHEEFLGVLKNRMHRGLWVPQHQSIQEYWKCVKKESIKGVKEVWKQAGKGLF
UniProt Q8N4C8: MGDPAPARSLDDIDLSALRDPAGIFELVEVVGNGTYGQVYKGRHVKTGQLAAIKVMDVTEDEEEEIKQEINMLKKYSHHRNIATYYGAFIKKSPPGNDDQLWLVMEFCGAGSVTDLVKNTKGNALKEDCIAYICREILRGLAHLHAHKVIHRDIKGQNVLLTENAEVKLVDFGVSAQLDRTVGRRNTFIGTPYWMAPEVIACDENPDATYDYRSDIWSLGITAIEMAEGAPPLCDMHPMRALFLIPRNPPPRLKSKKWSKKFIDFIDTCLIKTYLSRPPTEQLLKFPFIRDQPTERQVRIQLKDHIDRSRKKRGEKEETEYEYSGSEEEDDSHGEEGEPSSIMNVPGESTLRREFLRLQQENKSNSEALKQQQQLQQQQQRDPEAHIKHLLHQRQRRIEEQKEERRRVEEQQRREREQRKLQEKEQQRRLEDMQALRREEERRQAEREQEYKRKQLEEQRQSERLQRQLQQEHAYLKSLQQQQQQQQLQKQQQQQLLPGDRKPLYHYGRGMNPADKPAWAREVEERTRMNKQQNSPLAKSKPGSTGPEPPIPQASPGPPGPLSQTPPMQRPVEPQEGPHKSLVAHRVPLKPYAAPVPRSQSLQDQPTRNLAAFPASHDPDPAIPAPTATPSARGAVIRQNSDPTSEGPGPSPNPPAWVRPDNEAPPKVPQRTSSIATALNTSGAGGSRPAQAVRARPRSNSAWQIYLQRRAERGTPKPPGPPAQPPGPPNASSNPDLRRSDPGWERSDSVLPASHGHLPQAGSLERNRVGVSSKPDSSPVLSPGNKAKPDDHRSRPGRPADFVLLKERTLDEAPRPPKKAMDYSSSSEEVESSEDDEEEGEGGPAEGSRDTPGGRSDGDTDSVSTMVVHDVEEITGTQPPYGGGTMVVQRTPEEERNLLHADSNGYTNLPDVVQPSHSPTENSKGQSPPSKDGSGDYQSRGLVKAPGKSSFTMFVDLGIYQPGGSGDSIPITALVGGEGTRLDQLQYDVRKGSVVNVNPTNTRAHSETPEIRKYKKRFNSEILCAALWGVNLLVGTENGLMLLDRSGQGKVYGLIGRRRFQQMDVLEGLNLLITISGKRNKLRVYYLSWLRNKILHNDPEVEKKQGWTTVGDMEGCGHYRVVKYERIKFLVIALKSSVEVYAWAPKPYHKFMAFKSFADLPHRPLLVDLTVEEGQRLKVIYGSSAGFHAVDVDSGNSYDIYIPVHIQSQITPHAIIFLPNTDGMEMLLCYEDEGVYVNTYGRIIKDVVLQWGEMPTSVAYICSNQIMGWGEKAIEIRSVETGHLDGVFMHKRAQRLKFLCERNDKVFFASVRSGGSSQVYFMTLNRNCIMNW
UniProt O00566: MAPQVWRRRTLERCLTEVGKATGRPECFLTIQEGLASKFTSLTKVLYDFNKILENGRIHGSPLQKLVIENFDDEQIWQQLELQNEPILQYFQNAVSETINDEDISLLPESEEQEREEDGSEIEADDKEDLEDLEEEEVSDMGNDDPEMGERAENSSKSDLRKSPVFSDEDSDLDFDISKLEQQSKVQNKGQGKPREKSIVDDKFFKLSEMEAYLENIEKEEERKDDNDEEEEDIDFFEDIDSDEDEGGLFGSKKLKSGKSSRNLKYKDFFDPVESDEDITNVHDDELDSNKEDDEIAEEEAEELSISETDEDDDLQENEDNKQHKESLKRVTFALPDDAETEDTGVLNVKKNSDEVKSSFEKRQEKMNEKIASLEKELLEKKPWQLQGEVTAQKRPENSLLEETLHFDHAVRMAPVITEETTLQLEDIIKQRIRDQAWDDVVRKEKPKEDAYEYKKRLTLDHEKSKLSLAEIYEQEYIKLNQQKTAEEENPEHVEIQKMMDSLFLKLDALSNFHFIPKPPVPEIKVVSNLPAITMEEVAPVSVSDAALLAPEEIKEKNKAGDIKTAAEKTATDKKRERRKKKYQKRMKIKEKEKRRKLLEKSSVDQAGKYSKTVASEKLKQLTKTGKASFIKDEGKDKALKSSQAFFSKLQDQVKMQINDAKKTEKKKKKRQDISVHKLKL

Compound: CN1CC[C@H](c2c(O)cc(O)c3c(=O)cc(-c4ccccc4Cl)oc23)[C@H](O)C1 [alvocidib]
Assay: log2 fold change, soluble protein after heating vs DMSO (PISA); higher = thermal stabilisation; K562 cells, 10 uM, 30 min; active = over 0.2 and 3.5 SD of the protein, either way, in both replicates (recomputed)
In short: (§1)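 K562 cells at 2×10^6 cells/mL were treated with 10 μM compound for 30 min. Aliquots were heated for 3 min across 48°C-58°C, pooled, and extracted in PBS with 0.5% NP-40 at 4°C; soluble protein was the supernatant after 21,000xg for 90 min. Soluble protein was quantified by TMTpro 16plex LC-MS/MS with channel sums equalised, and reported as log2 fold change in thermal stability against DMSO controls, with values from duplicates.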

log2 fold change, inactive:
MLXIP (UniProt Q9HAP2) -0.141
MRPL4 (UniProt Q9BYD3) 0.12
MMGT1 (UniProt Q8N4V1) -0.029
MOCS2 (UniProt O96033) 0.063
MRPL53 (UniProt Q96EL3) 0.218
MRPL37 (UniProt Q9BZE1) 0.05
MOB3A (UniProt Q96BX8) -0.137
MPC1 (UniProt Q9Y5U8) -0.067
MPST isoform 2 (UniProt P25325) -0.058
MPRIP isoform 2 (UniProt Q6WCQ1) -0.013
MRPL28 (UniProt Q13084) 0.064
MMAA (UniProt Q8IVH4) -0.04
MRPL42 (UniProt Q9Y6G3) 0.04

Compound: CN1CCc2c(c3ccccc3n2Cc2ccc(C(=O)NO)cc2)C1 [Tubastatin A]
Assay: as above
In short: as §1

log2 fold change, inactive:
MRPL47 (UniProt Q9HD33) 0.081
MLXIP (UniProt Q9HAP2) 0.086
MRPL4 (UniProt Q9BYD3) 0.116
MIF (UniProt P14174) -0.065
MMGT1 (UniProt Q8N4V1) -0.078
MMS19 isoform 8 (UniProt Q96T76) -0.071
MOCS2 (UniProt O96033) 0.189
MNAT1 (UniProt P51948) 0.006
MRPL53 (UniProt Q96EL3) 0.066
MIS12 (UniProt Q9H081) 0.031
MRPL37 (UniProt Q9BZE1) 0.046
MKRN2 (UniProt Q9H000) 0.177
MITD1 (UniProt Q8WV92) 0.161
MIEN1 (UniProt Q9BRT3) 0.069
MKRN3 (UniProt Q13064) 0.221
MICU1 isoform 3 (UniProt Q9BPX6) -0.007
MOB3A (UniProt Q96BX8) 0.046
MLST8 (UniProt Q9BVC4) 0.124
MND1 (UniProt Q9BWT6) -0.006
MRFAP1 (UniProt Q9Y605) 0.329
MRPL34 (UniProt Q9BQ48) 0.119
MICOS13 (UniProt Q5XKP0) 0
MPC1 (UniProt Q9Y5U8) 0.032
MRPL46 (UniProt Q9H2W6) 0.037
MORC3 (UniProt Q14149) -0.247
MIEF1 (UniProt Q9NQG6) -0.024
MON1B (UniProt Q7L1V2) 0.048
MPP1 (UniProt Q00013) 0.051
MPST isoform 2 (UniProt P25325) -0.016
MICU2 (UniProt Q8IYU8) 0.057
MOV10 (UniProt Q9HCE1) 0.025
MPRIP isoform 2 (UniProt Q6WCQ1) 0.095
MIEF1 (UniProt L0R8F8) 0.041
MRPL50 (UniProt Q8N5N7) 0.133
MINK1 (UniProt Q8N4C8) -0.015
MRPL28 (UniProt Q13084) 0.05
MRPL42 (UniProt Q9Y6G3) 0.079
MPHOSPH10 (UniProt O00566) 0.098
